Numbering of substitutions follows the chain as printed. No constants are given. Whether binding was seen depends on the method and setting. For part of these data: Binding can be weak; no strength is given. For part of these data: Binding seen in cells or lysates may run through a third protein. For part of these data: Tags and fused reporters may be left off the sequences shown.
Legend:
GST-TXNL1 [1] = target: T1, GST-TXNL1 (UniProt O43396); test: pull-down; pre-cleared rat liver cytosol with 60 nM GST fusion proteins, 2 h in HB; fusion proteins not pre-oxidized (untreated or pre-reduced with 1 mM DTT); glutathione-Sepharose beads, washed with EEB; western blotting; only the target purified
T1 sequence: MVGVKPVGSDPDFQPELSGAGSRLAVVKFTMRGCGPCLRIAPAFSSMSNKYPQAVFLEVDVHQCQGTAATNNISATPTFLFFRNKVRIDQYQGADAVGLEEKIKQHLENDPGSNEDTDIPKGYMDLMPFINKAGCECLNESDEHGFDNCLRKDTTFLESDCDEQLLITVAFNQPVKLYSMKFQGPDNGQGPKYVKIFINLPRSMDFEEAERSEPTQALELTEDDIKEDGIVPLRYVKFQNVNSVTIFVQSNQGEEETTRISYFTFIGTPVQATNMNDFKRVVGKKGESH

GST-TXNL1^C34,37S [2] = target: T2, GST-TXNL1^C34,37S (UniProt O43396); test: as above
T2 sequence: T1 sequence with C34S, C37S

GST-TXNL1 [3] = target: T1, GST-TXNL1; test: pull-down; pre-cleared rat liver cytosol with 60 nM GST fusion proteins, 2 h in HB; fusion proteins pre-oxidized with 10 mM H2O2 (15 min, 25°C); glutathione-Sepharose beads, washed with EEB; western blotting; only the target purified
GST-TXNL1^C34,37S [4] = target: T2, GST-TXNL1^C34,37S; test: as above
GST-GDI (bovine) = target: T3, GST-GDI (bovine) (UniProt P21856); test: pull-down; Rab5 capture assay: 1 µM GST-GDI with 20 µg purified early endosomes, 20 min 30°C in EEB with 0.3 mM ATP, 3 mM GDP, with or without cytosol; endosomes removed on a sucrose gradient; GST-GDI recovered on glutathione-Sepharose beads; anti-Rab5 blot; only the target purified
T3 sequence: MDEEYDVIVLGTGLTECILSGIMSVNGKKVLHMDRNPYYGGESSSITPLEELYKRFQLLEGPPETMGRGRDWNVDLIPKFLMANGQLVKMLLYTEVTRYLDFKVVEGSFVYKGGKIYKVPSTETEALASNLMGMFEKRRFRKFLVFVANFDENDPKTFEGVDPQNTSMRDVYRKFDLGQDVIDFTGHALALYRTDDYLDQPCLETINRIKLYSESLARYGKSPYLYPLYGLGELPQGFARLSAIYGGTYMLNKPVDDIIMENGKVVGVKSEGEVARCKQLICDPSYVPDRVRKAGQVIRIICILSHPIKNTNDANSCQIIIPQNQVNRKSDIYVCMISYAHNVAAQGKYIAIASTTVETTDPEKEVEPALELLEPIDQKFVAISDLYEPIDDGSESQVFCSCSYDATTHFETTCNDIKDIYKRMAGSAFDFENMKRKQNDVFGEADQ

GST-TXNL1-N = target: T4, GST-TXNL1-N (UniProt O43396); test: pull-down; pre-cleared rat liver cytosol with 60 nM GST fusion proteins, 2 h in HB; fusion proteins not pre-oxidized (untreated or pre-reduced with 1 mM DTT); glutathione-Sepharose beads, washed with EEB; western blotting; only the target purified
T4 sequence: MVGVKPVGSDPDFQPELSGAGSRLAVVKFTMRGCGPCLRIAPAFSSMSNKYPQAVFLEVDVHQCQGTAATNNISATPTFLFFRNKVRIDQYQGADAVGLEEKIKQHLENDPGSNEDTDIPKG

GST-TXNL1-C = target: T5, GST-TXNL1-C (UniProt O43396); test: as above
T5 sequence: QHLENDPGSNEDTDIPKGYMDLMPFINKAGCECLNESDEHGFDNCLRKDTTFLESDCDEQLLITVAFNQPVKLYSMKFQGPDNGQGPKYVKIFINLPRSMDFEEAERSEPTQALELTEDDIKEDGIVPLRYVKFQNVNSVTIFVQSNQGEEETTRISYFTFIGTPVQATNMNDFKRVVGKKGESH

[5] = target: endogenous p38MAPK (rat liver cytosol) (rat (endogenous in rat liver)); test: SEC; rat liver cytosol precipitated in 30% (NH4)2SO4, fractionated on a Superose 12 column; fractions analysed by western blotting

With cytosolic Rab5 (rat liver cytosol) the binding (GST-TXNL1 [1]) was “no binding (only without pre-oxidation by H2O2)”, the binding (GST-TXNL1^C34,37S [2]) was “no binding (only without pre-oxidation by H2O2)” and the binding (GST-TXNL1 [3]) was “binds”. For the same molecule, the binding (GST-TXNL1^C34,37S [4]) was “binds”.

With early endosomal Rab5 the binding (GST-GDI (bovine)) was “binds”.

With cytosolic GDI (rat liver cytosol) the binding (GST-TXNL1 [1]) was “binds”, the binding (GST-TXNL1^C34,37S [2]) was “binds” and the binding (GST-TXNL1-N) was “no binding (tested: 60 nM GST fusion protein)”. For the same molecule, the binding (GST-TXNL1-C) was “no binding (tested: 60 nM GST fusion protein)”, the binding (GST-TXNL1 [3]) was “binds” and the binding (GST-TXNL1^C34,37S [4]) was “binds”.

B1: endogenous TXNL1 (rat liver cytosol) (protein, UniProt Q920J4 1-289)
chain: T1 sequence with T154L, T155S, I246L
B1 was tested, and the binding [5] was “binds”.

Source: publication PMC2043495
